# Where a name gives a salt, the structure may show the parent alone. The list shows a part of the results. Single values are uncertain here, since repeats match poorly.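 Cells: ReNCell VM human fetal ventral-midbrain neural progenitors, differentiated mitogen-free. Blinded raters compared doublecortin-stained (early neurons) or tyrosine hydroxylase-stained (dopaminergic neurons) images with untreated wells, where 0 means no change. After repeats and both raters were averaged, compounds scoring 2 or above became hits for retesting.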
# What was measured:
# ReNCell VM [1] = assay: neuronal differentiation score (DCX+ cell fraction vs untreated, manual image score) (score (-3 to 3)); higher = more neuronal differentiation; conditions: 2 uM, 2 weeks
# ReNCell VM [2] = assay: dopaminergic neuron differentiation score (TH+ cell fraction vs untreated, manual image score) (score (0 to 3)); higher = more TH+ dopaminergic neuron differentiation; conditions: 2 uM, 4 weeks, BDNF 10 ng/ml + GDNF 10 ng/ml
structure (smiles),measurement,setting,value
C[C@]1(Cn2ccnn2)[C@H](C(=O)O)N2C(=O)C[C@H]2S1(=O)=O [Tazobactam],neuronal differentiation score,ReNCell VM [1]; library: Prestwick,inactive: 0
same,dopaminergic neuron differentiation score,ReNCell VM [2]; library: Prestwick,inactive: 0
COc1ccc(C[C@H](N)C(=O)N[C@H]2[C@@H](O)[C@H](n3cnc4c(N(C)C)ncnc43)O[C@@H]2CO)cc1,neuronal differentiation score,ReNCell VM [1]; library: Spectrum,inactive: 0
same,dopaminergic neuron differentiation score,ReNCell VM [2]; library: Spectrum,inactive: 0
COc1cc(C)c2c(c1C=O)Oc1c(c(C)c(O)c3c1C(O)OC3=O)OC2=O (stereo not given) [stictic acid],neuronal differentiation score,ReNCell VM [1]; library: Natural,inactive: 0
same,dopaminergic neuron differentiation score,ReNCell VM [2]; library: Natural,inactive: 0
CC(=O)NCCCCCC(=O)O,neuronal differentiation score,ReNCell VM [1]; library: Spectrum,inactive: 0
same,dopaminergic neuron differentiation score,ReNCell VM [2]; library: Spectrum,inactive: 0
N=C(N)NCCN1CCCCCCC1 [Guanethidine sulfate],neuronal differentiation score,ReNCell VM [1]; library: Prestwick,inactive: 0
same,dopaminergic neuron differentiation score,ReNCell VM [2]; library: Prestwick,inactive: 0
COc1cc2c(=O)c(-c3ccc(O)cc3)coc2cc1O[C@@H]1O[C@H](CO)[C@@H](O)[C@H](O)[C@H]1O [Glycitin],neuronal differentiation score,ReNCell VM [1]; library: Phytochemical,inactive: 0
same,dopaminergic neuron differentiation score,ReNCell VM [2]; library: Phytochemical,inactive: 0
N#C[C@@H]1C[C@@H]2C[C@@H]2N1C(=O)[C@@H](N)C12CC3CC(CC(O)(C3)C1)C2,neuronal differentiation score,ReNCell VM [1]; library: Spectrum,inactive: 0
same,dopaminergic neuron differentiation score,ReNCell VM [2]; library: Spectrum,inactive: 0
O=C(O)COC(=O)Cc1ccccc1Nc1c(Cl)cccc1Cl [Aceclofenac],neuronal differentiation score,ReNCell VM [1]; library: Prestwick,inactive: 0
same,dopaminergic neuron differentiation score,ReNCell VM [2]; library: Prestwick,inactive: 0
COc1cc2c(cc1OC)-c1c(oc3cc(O)cc(O)c3c1=O)CO2,neuronal differentiation score,ReNCell VM [1]; library: Spectrum,inactive: 0
same,dopaminergic neuron differentiation score,ReNCell VM [2]; library: Spectrum,inactive: 0
CC1=CC(=O)c2ccccc2C1=O,neuronal differentiation score,ReNCell VM [1]; library: Spectrum,inactive: 0
same,dopaminergic neuron differentiation score,ReNCell VM [2]; library: Spectrum,inactive: 0
CN1c2cc3c(cc2N=C(c2ccc(C(=O)O)cc2)c2ccccc21)C(C)(C)CCC3(C)C,neuronal differentiation score,ReNCell VM [1]; library: Tocriscreen,inactive: 0
same,dopaminergic neuron differentiation score,ReNCell VM [2]; library: Tocriscreen,inactive: 0
N#CC(c1ccc(Cl)cc1)c1c(Cl)cc(-n2ncc(=O)[nH]c2=O)cc1Cl (stereo not given) [Diclazuril],neuronal differentiation score,ReNCell VM [1]; library: Prestwick,inactive: 0
same,dopaminergic neuron differentiation score,ReNCell VM [2]; library: Prestwick,inactive: 0
CNCc1ccccc1,neuronal differentiation score,ReNCell VM [1]; library: Spectrum,inactive: 0
same,dopaminergic neuron differentiation score,ReNCell VM [2]; library: Spectrum,inactive: 0
CN1CCc2c(c3ccccc3n2Cc2ccccc2)C1,neuronal differentiation score,ReNCell VM [1]; library: Spectrum,inactive: 0
same,dopaminergic neuron differentiation score,ReNCell VM [2]; library: Spectrum,inactive: 0
CC(=O)Oc1ccccc1C(=O)Oc1ccccc1C(=O)O,neuronal differentiation score,ReNCell VM [1]; library: Spectrum,inactive: 0
same,dopaminergic neuron differentiation score,ReNCell VM [2]; library: Spectrum,inactive: 0
N#Cc1c(-c2ccccc2)no[n+]1[O-] [4-Phenyl-3-furoxancarbonitrile],neuronal differentiation score,ReNCell VM [1]; library: LOPAC,inactive: 0
same,dopaminergic neuron differentiation score,ReNCell VM [2]; library: LOPAC,inactive: 0
N[C@@H](Cc1ccccc1)C(=O)O,neuronal differentiation score,ReNCell VM [1]; library: Spectrum,inactive: 0
same,dopaminergic neuron differentiation score,ReNCell VM [2]; library: Spectrum,inactive: 0
Cc1ccc(-c2cc(C(F)(F)F)nn2-c2ccc(S(N)(=O)=O)cc2)cc1 [Celecoxib],neuronal differentiation score,ReNCell VM [1]; library: Prestwick,inactive: 0
same,dopaminergic neuron differentiation score,ReNCell VM [2]; library: Prestwick,inactive: 0
CC(C)(C)NC[C@H](O)COc1cccc2c1CCCC2=O [(-) -Levobunolol hydrochloride],neuronal differentiation score,ReNCell VM [1]; library: Prestwick,inactive: 0
same,dopaminergic neuron differentiation score,ReNCell VM [2]; library: Prestwick,inactive: 0
Oc1c(I)cc(Cl)c2cccnc12,neuronal differentiation score,ReNCell VM [1]; library: Spectrum,inactive: 0
same,dopaminergic neuron differentiation score,ReNCell VM [2]; library: Spectrum,inactive: 0
CCC(=O)OCC(=O)[C@@]1(OC(=O)CC)[C@@H](C)C[C@H]2[C@@H]3CCC4=CC(=O)C=C[C@]4(C)[C@@]3(Cl)[C@@H](O)C[C@@]21C [Beclomethasone dipropionate],neuronal differentiation score,ReNCell VM [1]; library: Prestwick,inactive: 0
same,dopaminergic neuron differentiation score,ReNCell VM [2]; library: Prestwick,inactive: 0
O=[N+]([O-])c1ccc(-c2nc(-c3ccc(F)cc3)c(-c3ccncc3)[nH]2)cc1,neuronal differentiation score,ReNCell VM [1]; library: LOPAC,inactive: 0
same,dopaminergic neuron differentiation score,ReNCell VM [2]; library: LOPAC,inactive: 0
C[C@@H](CN1CC(=O)NC(=O)C1)N1CC(=O)NC(=O)C1 [Dexrazoxane hydrochloride],neuronal differentiation score,ReNCell VM [1]; library: Tocriscreen,inactive: 0
same,dopaminergic neuron differentiation score,ReNCell VM [2]; library: Tocriscreen,inactive: 0
COc1ccc([C@H]2COc3c(ccc(O)c3OC)C2)c(OC)c1O,neuronal differentiation score,ReNCell VM [1]; library: Spectrum,inactive: 0
same,dopaminergic neuron differentiation score,ReNCell VM [2]; library: Spectrum,inactive: 0
C#C[C@]1(O)CC[C@H]2[C@@H]3CCc4cc(OC)ccc4[C@H]3CC[C@@]21C [Ethynylestradiol 3-methyl ether],neuronal differentiation score,ReNCell VM [1]; library: Prestwick,inactive: 0
same,dopaminergic neuron differentiation score,ReNCell VM [2]; library: Prestwick,inactive: 0
COc1ccc(C(=O)CC(=O)c2ccc(C(C)(C)C)cc2)cc1,neuronal differentiation score,ReNCell VM [1]; library: Spectrum,inactive: 0
same,dopaminergic neuron differentiation score,ReNCell VM [2]; library: Spectrum,inactive: 0
"Nc1nc2c(nc(Br)n2[C@@H]2O[C@@H]3COP(=O)(O)O[C@H]3[C@H]2O)c(=O)[nH]1 [8-Bromo-cGMP, sodium salt]",neuronal differentiation score,ReNCell VM [1]; library: Tocriscreen,inactive: 0
same,dopaminergic neuron differentiation score,ReNCell VM [2]; library: Tocriscreen,inactive: 0
CC(C)[C@H](N)C(=O)OCCOCn1cnc2c(=O)nc(N)[nH]c21 [Valacyclovir hydrochloride],neuronal differentiation score,ReNCell VM [1]; library: Prestwick,inactive: 0
same,dopaminergic neuron differentiation score,ReNCell VM [2]; library: Prestwick,inactive: 0
N#CC(C#N)=C(N)/C(C#N)=C/c1ccc(O)cc1 [Tyrphostin AG 112],neuronal differentiation score,ReNCell VM [1]; library: LOPAC,inactive: 0
same,dopaminergic neuron differentiation score,ReNCell VM [2]; library: LOPAC,active: 3
O=C(O)[C@]1(O)C[C@@H](O)[C@@H](O)[C@H](O)C1,neuronal differentiation score,ReNCell VM [1]; library: Spectrum,inactive: 0
same,dopaminergic neuron differentiation score,ReNCell VM [2]; library: Spectrum,inactive: 0
C[C@H](CCC(=O)O)[C@H]1CC[C@H]2[C@@H]3[C@@H](O)C[C@@H]4C[C@H](O)CC[C@]4(C)[C@H]3CC[C@]12C,neuronal differentiation score,ReNCell VM [1]; library: Spectrum,inactive: 0
same,dopaminergic neuron differentiation score,ReNCell VM [2]; library: Spectrum,inactive: 0
CC(C)=CCc1c2c(c3occ(-c4ccc(O)c(O)c4)c(=O)c3c1O)C=CC(C)(C)O2,neuronal differentiation score,ReNCell VM [1]; library: Spectrum,inactive: 0
same,dopaminergic neuron differentiation score,ReNCell VM [2]; library: Spectrum,inactive: 0
COc1ccc2c(=O)oc3c(OC)cc(CCN(C)C)c4c(=O)oc1c2c34 [taspine],neuronal differentiation score,ReNCell VM [1]; library: Natural,inactive: 0
same,dopaminergic neuron differentiation score,ReNCell VM [2]; library: Natural,inactive: 0
C[C@H](O)C(=O)C1=Nc2c(nc(N)[nH]c2=O)NC1 [Sepiapterin],neuronal differentiation score,ReNCell VM [1]; library: LOPAC,inactive: 0
same,dopaminergic neuron differentiation score,ReNCell VM [2]; library: LOPAC,inactive: 0
Cc1cccc(C#Cc2ccccc2)n1 [6-Methyl-2-(phenylethynyl)pyridine hydrochloride],neuronal differentiation score,ReNCell VM [1]; library: LOPAC,inactive: -1
same,dopaminergic neuron differentiation score,ReNCell VM [2]; library: LOPAC,inactive: 0

# A different layout for part of the listing above:
structure (smiles)	measurement	setting	value
CC(=O)NCCCCCC(=O)O	dopaminergic neuron differentiation score	ReNCell VM [2]; library: Spectrum	inactive: 0
N=C(N)NCCN1CCCCCCC1 [Guanethidine sulfate]	neuronal differentiation score	ReNCell VM [1]; library: Prestwick	inactive: 0
same	dopaminergic neuron differentiation score	ReNCell VM [2]; library: Prestwick	inactive: 0

# Reference: the supplement of paper PMC4635364
